Hit rate of the full screen: of about 300,000 compounds, about 3,700 (1.2%) were called active. The shares of active, inactive and inconclusive entries below differ from those in the screen. Calls come from the whole dose curve; tested in HEK293 cells. Where the call is inconclusive, the potency comes from a doubtful curve fit.
Assay: qHTS for Inhibitors of binding or entry into cells for Lassa Virus; note: nearly all actives have a fitted effect of over 50% in size
Conditions: Lassa virus pseudotype entry inhibition, cell reporter; series mostly up to 37.9 µM
Potency is the fitted concentration of half-maximal effect.

Q: For `CCOc1ccc(NC(=O)c2oc3ccccc3c2NC(=O)c2cc3ccccc3o2)cc1`, which Potency is on record?
A: inactive

Q: With `Nn1c(SCC(=O)Nc2ccc3c(c2)OCO3)nnc1-c1cccc(Cl)c1` as the molecule, how does the Potency read?
A: inactive

Q: Which Potency does the source give for `CN1C2CCC1/C(=C\c1ccc(F)cc1)C(=O)/C2=C/c1ccc(F)cc1` here?
A: inactive

Q: For `Cc1nn(-c2ccc(Cl)cc2)c2sc(C(=O)N3CCN(c4ccccn4)CC3)cc12`, which Potency is on record?
A: inactive

Q: For `CCc1cccc(NC(=O)CCNS(=O)(=O)c2ccc3c(c2)CCN3C(C)=O)c1`, which Potency is on record?
A: inactive

Q: Which Potency does the source give for `CC1(C)CCC[C@]2(C)C(CS(=O)c3ccccc3)=C(C=O)CC[C@@H]12` (some centres undefined) here?
A: inconclusive: 4.47 µM [inhibitor, full curve, poor fit]

Q: With `C/C(=C\C(=O)c1ccccc1)Nc1ccc(O)cc1` as the molecule, how does the Potency read?
A: inconclusive: 22.4 µM [inhibitor, single point]

Q: With `COc1ccc(N2CCN(CCCNC(=O)c3ccc4nc(N5CCCCC5)sc4c3)CC2)cc1` as the molecule, how does the Potency read?
A: inconclusive: 11.2 µM [activator, partial curve, poor fit]

Q: For `CC1(C)CC(N2CCN(c3ccccc3)CC2)=CC(=[N+]2CCCC2)C1`, which Potency is on record?
A: inconclusive: 29.1 µM [inhibitor, single point]

Q: Which Potency does the source give for `CC(=O)Nc1ccc2oc(-c3cc(F)c(F)cc3Cl)nc2c1` here?
A: inconclusive: 4.61 µM [inhibitor, full curve, poor fit]

Q: With `NNC(=S)NCc1ccco1` as the molecule, how does the Potency read?
A: inconclusive: 35.5 µM [inhibitor, single point]

Q: With `COc1ccc(NC(=O)CNC(=O)Cc2ccccc2)cc1` as the molecule, how does the Potency read?
A: inconclusive: 8.91 µM [inhibitor, partial curve, poor fit]

Q: Which Potency does the source give for `COc1ccc(-n2nc3c(c2NC(=O)CCl)CSC3)cc1` here?
A: inconclusive: 8.91 µM [inhibitor, partial curve]

Q: Which Potency does the source give for `COc1ccc(-c2nc3ccccc3n3c(-c4ccccc4)c4c(=O)n(C)c(=O)n(C)c4c23)cc1` here?
A: inconclusive: 12.6 µM [activator, single point]

Q: Which Potency does the source give for `COc1ccc2c(Sc3ccc(Cl)cc3)c(C(=O)N3CCCCC3)[nH]c2c1` here?
A: inactive

Q: For `COc1ccc(-c2cc(C(=O)N3CCN(c4ccccc4F)CC3)c3ccccc3n2)c(OC)c1`, which Potency is on record?
A: inconclusive: 10 µM [inhibitor, partial curve, poor fit]

Q: Which Potency does the source give for `CC(C)CN1CC(C)C(=O)N(c2ccccc2)C1=O` (centres undefined) here?
A: inactive

Q: Which Potency does the source give for `COc1cccc(-n2cc(C(=O)NC(C)C)c3ccccc3c2=O)c1` here?
A: inconclusive: 35.5 µM [inhibitor, single point]

Q: For `Cc1cc(N2CCOCC2)n2ncc(-c3ccccc3)c2n1`, which Potency is on record?
A: active: 2.59 µM

Q: With `Cc1ccc(/C(N)=N/OC(=O)c2ccc(Cl)cc2Cl)cc1` as the molecule, how does the Potency read?
A: inconclusive: 10.3 µM [activator, partial curve]

Q: Which Potency does the source give for `Cc1cccc(-n2c(O)c(C=Nc3ccccc3N)c(=O)[nH]c2=O)c1` here?
A: inconclusive: 18.3 µM [inhibitor, single point]

Q: For `OC1(c2ccc(F)cc2)CCN(Cc2cccnc2)CC1`, which Potency is on record?
A: inactive

Q: Which Potency does the source give for `O=C(CC(=O)c1ccccc1)CS(=O)(=O)c1ccccc1` here?
A: inconclusive: 35.5 µM [activator, single point]

Q: Which Potency does the source give for `O=C(CCc1nc2ccccc2c(=O)[nH]1)N1CCN(c2ccc(F)cc2)CC1` here?
A: inconclusive: 35.5 µM [inhibitor, single point]

Q: With `COc1ccc(C(=O)Nc2ccccc2C(=O)Nc2cccnc2)cc1` as the molecule, how does the Potency read?
A: inactive

Q: Which Potency does the source give for `CC(=O)N1CC=CC1(CC(C)C)C(=O)NCCN1CCOCC1` (centres undefined) here?
A: inactive

Q: Which Potency does the source give for `CC(C)(C)c1ccc(C(=O)N2CCC(=O)N(C(CO)Cc3ccccc3)CC2)cc1` (centres undefined) here?
A: inconclusive: 16.4 µM [inhibitor, single point]

Q: Which Potency does the source give for `CCOC(=O)C(Oc1ccc(=O)[nH]n1)C(C)=O` (centres undefined) here?
A: inconclusive: 35.5 µM [activator, single point]

Q: With `Cc1ccc(/C=C2\C(=O)NC(=O)N2C)o1` as the molecule, how does the Potency read?
A: inconclusive: 17.8 µM [activator, single point]

Q: For `Cc1ccc(-n2nnnc2SC(C)C(=O)NCC(=O)Nc2ccc(F)c(F)c2F)c(C)c1` (centres undefined), which Potency is on record?
A: inconclusive: 35.5 µM [inhibitor, single point]

Q: With `NS(=O)(=O)c1ccc(NC(=O)c2cc(-c3cc(Cl)ccc3O)n[nH]2)cc1` as the molecule, how does the Potency read?
A: inconclusive: 3.16 µM [inhibitor, single point]

Q: With `CCCCCCC1CCC(C(=O)NC(C(=O)O)C(C)C)CC1` (centres undefined) as the molecule, how does the Potency read?
A: inconclusive: 35.5 µM [inhibitor, single point]

Q: With `O=C(CSc1nnc(COc2cccc3cccnc23)o1)c1ccc(F)cc1` as the molecule, how does the Potency read?
A: inconclusive: 29.1 µM [inhibitor, single point]

Q: For `Cc1ccc(CSc2nc3cccnc3n2Cc2ccc(C(=O)NCCc3cccs3)cc2)cc1`, which Potency is on record?
A: inconclusive: 6.31 µM [activator, single point]

Q: Which Potency does the source give for `CC1CCN(S(=O)(=O)c2cc(C(=O)N3CCN(c4ccccc4F)CC3)n(C)c2)CC1` here?
A: inactive

Q: With `COc1ccccc1-n1c(/C=C/c2ccccn2)nc2ccccc2c1=O` as the molecule, how does the Potency read?
A: inconclusive: 35.5 µM [inhibitor, single point]

Q: For `O=C(O)C1CC(c2ccccc2F)=NO1` (centres undefined), which Potency is on record?
A: inconclusive: 0.517 µM [inhibitor, full curve, poor fit]

Q: For `CC(=O)OCC(OC(C)=O)C(OC(C)=O)C(OC(C)=O)C(=O)Nc1ccccc1C` (centres undefined), which Potency is on record?
A: inconclusive: 32.6 µM [activator, single point]

Q: For `COc1cc(C(C(=O)NC2CCCC2)N(C(=O)c2snc(C(N)=O)c2N)c2ccccc2)cc(OC)c1OC` (centres undefined), which Potency is on record?
A: inconclusive: 0.562 µM [inhibitor, full curve, poor fit]

Q: With `Cc1ccc(Sc2ccc(N3CCCC(C(=O)Nc4ccc(F)cc4F)C3)nn2)cc1` (centres undefined) as the molecule, how does the Potency read?
A: active: 0.891 µM

Q: With `Cc1cc(C)n2ncc(C(=O)Nc3ccc4c(c3)OCO4)c2n1` as the molecule, how does the Potency read?
A: inconclusive: 5.01 µM [activator, partial curve]

Q: For `COc1ccc(N2CCN(C(=O)Nc3ccc(S(=O)(=O)N(C)C)cc3)CC2)cc1`, which Potency is on record?
A: inconclusive: 0.058 µM [inhibitor, full curve, poor fit]

Q: With `CN1CCN(C2Cc3ccccc3Sc3ccc(Cl)cc32)CC1` (centres undefined) as the molecule, how does the Potency read?
A: active: 10.3 µM

Q: For `C=C(C)COc1ccc(-c2nc(N)ncc2-c2ccccc2OC)c(O)c1`, which Potency is on record?
A: inconclusive: 11.2 µM [inhibitor, partial curve, poor fit]

From PubChem BioAssay AID540256 (National Center for Advancing Translational Sciences (NCATS), 2011)
